# Taken from: PubChem BioAssay AID1159584 (Peter MacCallum Cancer Centre, 2016)
# Screen: 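Knock-downs that harm CDH1-null cells more than parental MCF10A cells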 (primary screen)
# Cell system: human MCF10A breast epithelial cells, parental and CDH1-null
# Reagent: siRNA against human genes
# Measured: 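Cell viability by CellTiter-Glo ATP luminescence, each line scaled to the mean of mock wells across plates, then CDH1-null over parental ratio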
# Scale: CDH1-null / parental viability ratio: higher = CDH1-null cells survive relatively better than parental
# The whole screen tested about 18,000 reagents; this is a part drawn at random. Further read-outs or replicates are left out here. Not given: the amount of reagent, the time to read-out.
target,CDH1-null / parental viability ratio
SLC39A5,1.09
TMEM147,1.12
LCE4A,0.87
IQCK,0.89
ZNF233,0.87
SOS2,1.39
STAT4,0.91
DNMT3B,0.9
SDC4,0.96
CXCL1,0.84
ELOVL6,1.01
TAF4B,0.98
KANK4,1.07
PSMB4,1.08
PLPP6,1.35
SSUH2,0.91
KRT74,0.84
TMEM252,0.88
ZFAND6,1
SGSM2,0.84
HSD11B1L,0.86
ZNF275,0.81
OTUD3,0.94
CD9,1.3
DNAH9,1.13
TWF1,0.96
H2AC11,0.92
BCL6B,1.19
TSPAN4,0.95
NADSYN1,1.02

Continued; the last 10 above are carried over.
target,CDH1-null / parental viability ratio
HSD11B1L,0.86
ZNF275,0.81
OTUD3,0.94
CD9,1.3
DNAH9,1.13
TWF1,0.96
H2AC11,0.92
BCL6B,1.19
TSPAN4,0.95
NADSYN1,1.02
ST3GAL3,0.95
SLC6A17,1.25
OR4D11,0.91
BTN1A1,0.78
KLHL24,0.98
CD200R1L,0.98
KALRN,0.87
TBCE,1.03
DHH,1.14
GPD2,1.13
ZNF182,1.06
KHSRP,0.92
PRKACA,0.89
CNR1,0.93
OR4F4,0.99
ARL10,1.4
DDX23,1.42
C10orf88,0.82
DHX58,0.86
ZNF491,1.09
ASB2,1
CHCHD10,1.02
DNAJC17,1.05
MFSD8,1.01
OR52N5,1.03
MUTYH,0.98
GPT,1.06
FAM193B,1.14
TTC16,1.04
PPFIBP2,1.26
ESRRA,1.1
CEL,0.82
C12orf42,0.79
PLVAP,1.47
GALNT16,1.07
DNAAF10,0.76
OR51E2,1.09
ADD1,0.95
G6PC2,1.26
COX7A2,0.83
APOL4,0.88
PDX1,0.94
PRKAB2,1
EFNA1,0.96
VRK1,0.96
ZCCHC13,1.04
OTUD7A,0.76
ZNF225,0.6
SERPINA1,1.12
RPSA,1.27
N4BP3,1.19
PAMR1,1.1
CAMK2N2,0.81
GCNT2,0.92
SLC37A1,1
CXCL6,0.77
AVPI1,0.73
